Data published in paper PMC4735695.
These are yes or no findings as the source states them, for the method shown. Binding seen in cells or lysates may run through a third protein. Some results given as binding are weak or reduced against the parent protein; the word gives no strength.

Sequences of proteins named here, by UniProt entry; tags and fusion partners are left off. A change or cut given only in a name is not applied to a line headed by its entry.
UniProt Q6XZF7, whole entry: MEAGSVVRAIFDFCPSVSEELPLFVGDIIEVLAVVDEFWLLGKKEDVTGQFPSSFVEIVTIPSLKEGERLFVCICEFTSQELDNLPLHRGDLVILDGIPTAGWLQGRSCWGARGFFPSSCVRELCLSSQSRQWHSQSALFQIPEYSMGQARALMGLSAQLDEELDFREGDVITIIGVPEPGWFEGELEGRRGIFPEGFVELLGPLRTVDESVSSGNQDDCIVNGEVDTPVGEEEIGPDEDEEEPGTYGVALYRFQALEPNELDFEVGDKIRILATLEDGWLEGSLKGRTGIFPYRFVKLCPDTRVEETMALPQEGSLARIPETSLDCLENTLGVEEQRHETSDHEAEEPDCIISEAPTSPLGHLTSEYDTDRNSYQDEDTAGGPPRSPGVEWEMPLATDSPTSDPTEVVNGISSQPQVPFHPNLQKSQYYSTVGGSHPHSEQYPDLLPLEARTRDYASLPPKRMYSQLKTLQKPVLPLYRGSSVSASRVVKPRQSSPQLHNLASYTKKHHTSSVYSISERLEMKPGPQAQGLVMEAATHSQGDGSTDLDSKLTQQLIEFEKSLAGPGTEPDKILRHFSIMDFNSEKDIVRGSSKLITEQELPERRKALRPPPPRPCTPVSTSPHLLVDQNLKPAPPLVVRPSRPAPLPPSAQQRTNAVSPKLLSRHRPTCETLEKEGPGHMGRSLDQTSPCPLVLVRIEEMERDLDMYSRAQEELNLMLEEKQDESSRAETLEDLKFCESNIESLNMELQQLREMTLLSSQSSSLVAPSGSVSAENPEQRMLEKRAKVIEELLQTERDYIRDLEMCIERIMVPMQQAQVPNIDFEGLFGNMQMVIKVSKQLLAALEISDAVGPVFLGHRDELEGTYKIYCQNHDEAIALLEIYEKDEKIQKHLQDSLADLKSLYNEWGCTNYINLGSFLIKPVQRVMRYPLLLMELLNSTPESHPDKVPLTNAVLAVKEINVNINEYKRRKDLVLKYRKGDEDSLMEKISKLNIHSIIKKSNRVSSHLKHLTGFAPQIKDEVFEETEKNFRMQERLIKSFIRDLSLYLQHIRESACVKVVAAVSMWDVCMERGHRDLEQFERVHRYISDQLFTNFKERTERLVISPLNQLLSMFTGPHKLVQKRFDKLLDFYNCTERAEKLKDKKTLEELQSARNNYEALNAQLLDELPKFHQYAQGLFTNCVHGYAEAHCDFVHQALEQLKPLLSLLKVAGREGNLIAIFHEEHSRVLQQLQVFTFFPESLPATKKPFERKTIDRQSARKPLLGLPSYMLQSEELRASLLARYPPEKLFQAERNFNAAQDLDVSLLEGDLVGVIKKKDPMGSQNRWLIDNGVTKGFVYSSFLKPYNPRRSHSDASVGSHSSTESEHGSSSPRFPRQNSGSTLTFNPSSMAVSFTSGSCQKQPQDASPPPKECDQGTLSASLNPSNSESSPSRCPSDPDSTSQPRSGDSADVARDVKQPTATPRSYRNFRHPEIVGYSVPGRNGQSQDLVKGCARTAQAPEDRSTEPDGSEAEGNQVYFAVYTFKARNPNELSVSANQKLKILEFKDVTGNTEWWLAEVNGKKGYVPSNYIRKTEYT

Target: GST-Cdc42-G15A (UniProt P60953)
Experiment: pull-down; GST-Cdc42-G15A on beads; lysates of HEK293T cells transfected with HA-Tuba (WT or YF mutant; with or without Flag-Shp2-E76G), lysis buffer 50 mM HEPES pH 7.5, 1% Triton X-100, 150 mM NaCl, 20 mM NaF, 1 mM Na3VO4, 1 mM DTT; precleared with GST beads 10 min at 4 °C; precipitated HA-Tuba seen by western blot with HA antibody; read by the paper as GEF activity; only the target purified

Substance: HA-Tuba (Homo sapiens), wild type (from UniProt Q6XZF7 1-1577)
- binding: binds
